# Results from one PubChem assay

The results are deposited in PubChem (AID1159506; NCATS, 2015).

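Genome-wide siRNA knockdown in TC32 Ewing sarcoma cells, comparing luciferase light from an NR0B1-promoter reporter with a CMV-promoter reporter 48 hours after transfection.
Each siRNA was applied at 20 nM.
A z-score of the log NR0B1-over-CMV signal, less the median of siRNAs with the same seed; more negative means a stronger specific loss of the NR0B1 reporter.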

The strongest results of the screen are mostly left out here.
Sequences are the guide (antisense) strand, without overhang.

siRNA: UUCAUGUCGUGAACCAGCU
target gene: TRIP6
seed-corrected z-score: -1.15

siRNA: UCAUAUCGAAUGAAGACUC
target gene: MORN4
seed-corrected z-score: -0.5983

siRNA: CCACUUAUUAUACCUGUUC
target gene: ZBTB8A
seed-corrected z-score: 0.01419

siRNA: CAGGGUAUGAGCUUGGCGA
target gene: CTRB2
seed-corrected z-score: -0.5954

siRNA: UUCGGUGUAAUAGCAGAGG
target gene: OR5R1
seed-corrected z-score: -0.08083

siRNA: UGGGUAGAAAAUGAGCUGC
target gene: FGF14
seed-corrected z-score: 0.007601

siRNA: AUUCGCUUAGGGAUGAUGG
target gene: REXO1
seed-corrected z-score: 0.4646

siRNA: UCUUUAAGAACUCAGCUCC
target gene: RPS26P10
seed-corrected z-score: -0.3125

siRNA: UGGGUUUCGGUGAUUGUUC
target gene: NPIPB15
seed-corrected z-score: -0.1796

siRNA: AUAGUCACAAACACUGCAG
target gene: TIMMDC1
seed-corrected z-score: -0.5766

siRNA: UUUCUUCUCAUGGAGUUGC
target gene: KCNJ8
seed-corrected z-score: -0.308

siRNA: UUCAUUAGCACGUACUUGA
target gene: CALML6
seed-corrected z-score: 0.1904

siRNA: UUUAAUCUCAGAUCCGUGG
target gene: ARSJ
seed-corrected z-score: -0.2554

siRNA: UGAUGUAAAGGGUGAGCAG
target gene: KIF12
seed-corrected z-score: 0.4001

siRNA: UAUCUAUGGAGUAUGUCUG
target gene: RHEB
seed-corrected z-score: -0.2181

siRNA: AAUUGUUUCAGUUGUCCAG
target gene: GSTM3
seed-corrected z-score: -0.9859

siRNA: UGAGCAGACGGACAACACC
target gene: THA1P
seed-corrected z-score: 0.6809

siRNA: UUCUGAACCAUGGCAGCUG
target gene: PDE4DIP
seed-corrected z-score: 0.6842

siRNA: UUAAGUUAUCAUAAUGACC
target gene: ZNF443
seed-corrected z-score: -0.4213

siRNA: AAAGCUGACACGACAAUGC
target gene: LEPROTL1
seed-corrected z-score: 0.5949

siRNA: UACCCGAAUGUUAUGAUAC
target gene: SSH2
seed-corrected z-score: -0.039

siRNA: UCAUUGUCUGCGUCUUGUC
target gene: LRRC71
seed-corrected z-score: -0.8101

siRNA: AUUGGUGUAUCUUAGAGGG
target gene: OR2M5
seed-corrected z-score: 0.1234

siRNA: AAGAAGAUCAGAUUUGUCU
target gene: GADL1
seed-corrected z-score: 0.5651

siRNA: UUUAGUCAUAGCCUCAUAC
target gene: SSX2
seed-corrected z-score: -0.8102

siRNA: AAAGGUUUGGAGUAUGUCU
target gene: CXCL8
seed-corrected z-score: -0.4132

siRNA: UAAGAGUUUCUGGUAGAAC
target gene: KNDC1
seed-corrected z-score: 0.4669

siRNA: AACGGAAUGAGGUCCAUAC
target gene: LMLN
seed-corrected z-score: -0.8217

The last 2 entries again:

| siRNA | target gene | seed-corrected z-score |
|---|---|---|
| `UAAGAGUUUCUGGUAGAAC` | KNDC1 | 0.4669 |
| `AACGGAAUGAGGUCCAUAC` | LMLN | -0.8217 |